One experiment addresses WT pyroglu. Put plainly: phage ELISA: anti-CD3 antibody coated on the plate, dilution series of M13 phage displaying the CD3εγ variant, anti-M13-HRP, OD A450 (p-1389); [phage] axis 10^-3 to 10^0 without unit.
A further experiment addresses WT GLN. The experiment is described as above.

The values below come from patent US20200299408A1.

No constants are given. Whether binding was seen depends on the method and setting. Some entries that bind do so weakly or less than the wild type.

B1: hu38E4.v1 Fab (Fab, V domains shown)
VH: EVQLVQSGAEVKKPGASVKVSCKASGFTFTSYYIHWVRQAPGQGLEWIGWIYPENDNTKYNEKFKDRVTITADTSTSTAYLELSSLRSEDTAVYYCARDGYSRYYFDYWGQGTLVTVSS
VL: DIVMTQSPDSLAVSLGERATINCKSSQSLLNSRTRKNYLAWYQQKPGQSPKLLIYWTSTRKSGVPDRFSGSGSGTDFTLTISSLQAEDVAVYYCKQSFILRTFGQGTKVEIK
For B1, the binding result in the experiment with WT pyroglu and in the experiment with WT GLN was “binds” each time.
